Record: PubChem BioAssay AID1259425 (University of Nebraska Medical Center, 2018)
Here is a random part of about 14,000 reagents tested. Not all columns of the deposit are shown. Reagent sequences are not shown. Not stated in the record: the time to read-out.

Aim: 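Seek colon cancer weak points whose silencing resembles KSR1 loss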 (primary screen)
System: HCT116 human colon cancer cells
Reagents: siRNA pool against human genes, 50 nM siRNA
Read-out: 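After 50 nM siRNA pool, branched-DNA assay measures six marker transcripts per well, minus blank, normalised to the geometric mean of two housekeeping transcripts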
Scale: BNIP3L mRNA: higher = more BNIP3L transcript after knockdown

TTC29 scored BNIP3L mRNA, set 1 = 0.127.
Knock-down of INTS12 gave: BNIP3L mRNA, set 1 = 0.183.
Knock-down of P3H2 gave: BNIP3L mRNA, set 1 = 0.113.
RPL26 gave BNIP3L mRNA, set 1 = 0.203.
After knock-down of PSTPIP2, the record shows BNIP3L mRNA, set 1 = 0.114.
Silencing of IGHM came out at: BNIP3L mRNA, set 1 = 0.146.
Against LRP5, the entry reads BNIP3L mRNA, set 1 = 0.0492.
For PROKR1, the entry reads BNIP3L mRNA, set 1 = 0.242.
With knock-down of RASSF7, the record shows BNIP3L mRNA, set 1 = 0.123.
BCHE gave BNIP3L mRNA, set 1 = 0.0766.
Against DOCK1 the deposit lists BNIP3L mRNA, set 1 = 0.0714.
Depletion of PSMA4 resulted in: BNIP3L mRNA, set 1 = 0.246.

2 successive entries already listed:
IGHM → BNIP3L mRNA, set 1 = 0.146
LRP5 → BNIP3L mRNA, set 1 = 0.0492

Continued.
Silencing of AP2S1 gave: BNIP3L mRNA, set 1 = 0.137.
Silencing of L3MBTL1 came out at: BNIP3L mRNA, set 1 = 0.105.
Against FBXL6, the entry reads BNIP3L mRNA, set 1 = 0.0957.
Depletion of ADAM22 came out at: BNIP3L mRNA, set 1 = 0.0681.
ADSL gave BNIP3L mRNA, set 1 = 0.39.
Against SMC1A the deposit lists BNIP3L mRNA, set 1 = 0.192.
After knock-down of FAM13B, the record shows BNIP3L mRNA, set 1 = 0.116.
BRCA1 gave BNIP3L mRNA, set 1 = 0.0752.
After knock-down of H4C11, the screen gave BNIP3L mRNA, set 1 = 0.101.
After knock-down of APPL1, the screen gave BNIP3L mRNA, set 1 = 0.191.
DENND4C scored BNIP3L mRNA, set 1 = 0.0945.
After knock-down of RAB24 the results were BNIP3L mRNA, set 1 = 0.197.
Depletion of GK2 gave: BNIP3L mRNA, set 1 = 0.0704.
ADAT1 showed BNIP3L mRNA, set 1 = 0.254.
CD5 scored BNIP3L mRNA, set 1 = 0.106.
VEZF1 showed BNIP3L mRNA, set 1 = 0.0721.
